In EP4342467A1, “KU INHIBITORS FOR USE IN TUMOR THERAPY” (Masarykova Univerzita, priority 2022, dated 2024):
Some entries share one result that the patent states for a list of compounds.

How the values were obtained:
HCT116 cells [1] = assay: cell proliferation, ATPlite assay; format: cell-based, human; conditions: HCT116, U2OS and HeLa cells
Description: HCT116, U2OS and HeLa cells were grown in McCoy's 5a medium supplemented with 10% Fetal Bovine Serum, 2 mM L-Glutamine and Penicilin/Streptomycin 200 U/l each in the presence of Compound 1-9. After growth at 37 °C, 5% CO2 for 3 days, monolayer of cells was detached using TrypLE Express (Gibco), cells were counted using 0.4% trypan blue stain and hemocytometer. […] Number of viable cells was estimated using ATPlite kit (Perkin Elmer).

HCT116 cells [2] = assay: C-circle assay (extrachromosomal circular telomeric DNA); format: cell-based, human; conditions: HCT116 incubated for 3, 5 or 7 days
Description: HCT116 cell were incubated for 3, 5 or 7 days in McCoy's 5a medium with 10% Fetal Bovine Serum, 2 mM L-Glutamine and Penicilin/Streptomycin 200 U/l each and supplemented with Compound 1-9. C-circle assay that utilizes rolling circle amplification of circular DNA by φ29 polymerase was performed as described in Henson, J.D., Lau, L.M., Koch, S., Martin La Rotta, N., Dagg, R.A., and Reddel, R.R. (2017). The C-Circle Assay for alternative-lengthening-of-telomeres activity. Methods 114, 74-84. Amplified circular telomeric DNA was detected by dot blot hybridization with P^32-labeled telomeric DNA oligonucleotide (5'-[…]-3' (SEQ ID NO: 6)) (Figure 4).

For Cc1ccc(C(=O)Nc2nc(-c3ccccc3)cs2)cc1 [Compound 9], which “proliferation of human tumor cell lines” value (HCT116 cells [1]) is on record?
The value was “inhibit proliferation of human tumor cell lines”.

And the “formation of extrachromosomal circular telomeric DNA” value (shortened to “formation”) (HCT116 cells [2])?
The value was “induce the formation of extrachromosomal circular telomeric DNA”.

How did the “proliferation of human tumor cell lines” value (HCT116 cells [1]) turn out when O=C(Nc1nc(-c2ccccn2)cs1)c1cccc(Br)c1 [Compound 3] was run?
Its value is “inhibit proliferation of human tumor cell lines”.

And the “formation” value (HCT116 cells [2])?
Its value is “induce the formation of extrachromosomal circular telomeric DNA”.

With O=C(Nc1nc(-c2ccccn2)cs1)c1cccnc1 [Compound 2] as the compound, how does the “proliferation of human tumor cell lines” value (HCT116 cells [1]) read?
Its value is “inhibit proliferation of human tumor cell lines”.

And the “formation” value (HCT116 cells [2])?
The value was “induce the formation of extrachromosomal circular telomeric DNA”.
